Results as given in article PMC10670284.
No constants are given. Whether binding was seen depends on the method and setting. Binding seen in cells or lysates may run through a third protein. Where a sequence is shown, tags or fusion partners need not be part of it.

Molecular target: FLAG-tagged TCF7L2, C-terminally truncated (delC = TCF7L2AA1-321)
Test: co-IP; 0.5 mg whole cell extract of transfected HEK293T cells rotated overnight at +4 °C with 2.5 μg anti-FLAG antibody, Dynabeads Protein G; extracts diluted to 150 mM NaCl and 0.1% NP-40; Western blot

B1: Myc-tagged KDM2A (protein, UniProt Q9Y2K7 1-1162)
chain: MEPEEERIRYSQRLRGTMRRRYEDDGISDDEIEGKRTFDLEEKLHTNKYNANFVTFMEGKDFNVEYIQRGGLRDPLIFKNSDGLGIKMPDPDFTVNDVKMCVGSRRMVDVMDVNTQKGIEMTMAQWTRYYETPEEEREKLYNVISLEFSHTRLENMVQRPSTVDFIDWVDNMWPRHLKESQTESTNAILEMQYPKVQKYCLMSVRGCYTDFHVDFGGTSVWYHIHQGGKVFWLIPPTAHNLELYENWLLSGKQGDIFLGDRVSDCQRIELKQGYTFVIPSGWIHAVYTPTDTLVFGGNFLHSFNIPMQLKIYNIEDRTRVPNKFRYPFYYEMCWYVLERYVYCITNRSHLTKEFQKESLSMDLELNGLESGNGDEEAVDREPRRLSSRRSVLTSPVANGVNLDYDGLGKTCRSLPSLKKTLAGDSSSDCSRGSHNGQVWDPQCAPRKDRQVHLTHFELEGLRCLVDKLESLPLHKKCVPTGIEDEDALIADVKILLEELANSDPKLALTGVPIVQWPKRDKLKFPTRPKVRVPTIPITKPHTMKPAPRLTPVRPAAASPIVSGARRRRVRCRKCKACVQGECGVCHYCRDMKKFGGPGRMKQSCVLRQCLAPRLPHSVTCSLCGEVDQNEETQDFEKKLMECCICNEIVHPGCLQMDGEGLLNEELPNCWECPKCYQEDSSEKAQKRKMEESDEEAVQAKVLRPLRSCDEPLTPPPHSPTSMLQLIHDPVSPRGMVTRSSPGAGPSDHHSASRDERFKRRQLLRLQATERTMVREKENNPSGKKELSEVEKAKIRGSYLTVTLQRPTKELHGTSIVPKLQAITASSANLRHSPRVLVQHCPARTPQRGDEEGLGGEEEEEEEEEEEDDSAEEGGAARLNGRGSWAQDGDESWMQREVWMSVFRYLSRRELCECMRVCKTWYKWCCDKRLWTKIDLSRCKAIVPQALSGIIKRQPVSLDLSWTNISKKQLTWLVNRLPGLKDLLLAGCSWSAVSALSTSSCPLLRTLDLRWAVGIKDPQIRDLLTPPADKPGQDNRSKLRNMTDFRLAGLDITDATLRLIIRHMPLLSRLDLSHCSHLTDQSSNLLTAVGSSTRYSLTELNMAGCNKLTDQTLIYLRRIANVTLIDLRGCKQITRKACEHFISDLSINSLYCLSDEKLIQKIS
With B1 the binding was “no binding”.
